Data published in paper PMC11287749.
pKd: −log10 of the molar value. For some assays here: A negative result means that nothing was seen under these conditions. For at least one entry, the source does not settle the construct or the ends of the probe. For some assays here: Whether high values mean tight binding is not given here for every scale.

Amino acid sequences for entries named in this document (tags omitted). Residues count along the entry.
UniProt P05231, 30-212: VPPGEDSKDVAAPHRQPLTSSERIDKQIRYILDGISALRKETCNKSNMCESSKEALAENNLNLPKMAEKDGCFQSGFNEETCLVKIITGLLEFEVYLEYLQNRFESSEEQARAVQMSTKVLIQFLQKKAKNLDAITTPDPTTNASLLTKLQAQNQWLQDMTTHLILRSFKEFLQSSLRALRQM

Assays:
[1] = biological target: IL-6 (human recombinant, Invitrogen) (Homo sapiens) (UniProt P05231); experiment: not stated (cited); conditions: 0.5 mg/L SWCNT-ssDNA in 1x PBS (or 1x PBS + 10% FBS), 5250 ng/mL IL-6, 120 uL, up to 180 min; commercial protein; single-stranded DNA
[2] = biological target: IL-6 (human recombinant, Invitrogen) (Homo sapiens) (UniProt P05231); experiment: SWCNT NIR fluorescence; conditions: noncovalently adsorbed on SWCNT, 0.5 mg/L SWCNT-ssDNA in 1x PBS (or 1x PBS + 10% FBS), 5250 ng/mL IL-6, 120 uL, up to 180 min, commercial protein, single-stranded DNA; for binding result: PBS + 10% FBS, no significant response

Sequence: GGTGGCAGGAGGACTA [15Apt (free, cited)]
- pKd [1]: 6.72

Sequence: GGTGGCAGGAGGACTA [15Apt]
- binding result ([2]; p = 0.15): no binding

Sequence: GGTGGCAGGAGGACTATTTATTTGCTTTTCT [31Apt (free, cited)]
- pKd [1]: 7.77

Sequence: GGTGGCAGGAGGACTATTTATTTGCTTTTCT [31Apt]
- binding signal ([2]; PBS, construct heated to 95 C and cooled, 3 h, p = 0.032): 10 % quenching

Sequence: TGTGTGTGTGTGTGTGTGTGTGTGTGTGTGGTGGCAGGAGGACTATTTATTTGCTTTTCT [(GT)15+31Apt]
- binding result ([2]; p = 0.58): no binding
